Measured values taken from publication PMC6602300.
These are yes or no findings as the source states them, for the method shown. Binding seen in cells or lysates may run through a third protein. Here binding means that the protein was enriched with, or labelled near, the bait; the list need not be complete. Where a sequence is shown, tags or fusion partners need not be part of it.

Chains of the proteins cited; added tags and fusions are not shown.
UniProt P63073: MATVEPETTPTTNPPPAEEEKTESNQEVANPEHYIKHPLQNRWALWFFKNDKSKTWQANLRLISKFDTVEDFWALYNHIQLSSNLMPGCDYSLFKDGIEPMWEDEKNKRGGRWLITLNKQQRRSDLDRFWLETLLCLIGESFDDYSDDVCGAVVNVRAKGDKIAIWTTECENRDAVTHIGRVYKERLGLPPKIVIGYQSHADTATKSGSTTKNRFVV
UniProt Q9CPN8: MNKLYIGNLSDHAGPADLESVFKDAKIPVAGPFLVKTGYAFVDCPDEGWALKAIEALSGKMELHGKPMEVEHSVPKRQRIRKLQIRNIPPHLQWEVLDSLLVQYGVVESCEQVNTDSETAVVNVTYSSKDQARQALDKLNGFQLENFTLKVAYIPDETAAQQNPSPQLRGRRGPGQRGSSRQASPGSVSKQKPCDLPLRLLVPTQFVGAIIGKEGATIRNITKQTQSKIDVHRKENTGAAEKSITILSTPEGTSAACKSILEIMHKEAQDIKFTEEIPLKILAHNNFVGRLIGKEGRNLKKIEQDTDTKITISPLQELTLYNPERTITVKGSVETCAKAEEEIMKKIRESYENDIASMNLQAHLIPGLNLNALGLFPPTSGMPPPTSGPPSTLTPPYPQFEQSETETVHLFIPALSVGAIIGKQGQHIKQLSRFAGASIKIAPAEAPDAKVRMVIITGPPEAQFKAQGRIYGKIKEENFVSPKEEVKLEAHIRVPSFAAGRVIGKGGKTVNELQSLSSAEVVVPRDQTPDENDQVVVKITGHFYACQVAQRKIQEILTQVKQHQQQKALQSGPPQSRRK
UniProt Q80U58: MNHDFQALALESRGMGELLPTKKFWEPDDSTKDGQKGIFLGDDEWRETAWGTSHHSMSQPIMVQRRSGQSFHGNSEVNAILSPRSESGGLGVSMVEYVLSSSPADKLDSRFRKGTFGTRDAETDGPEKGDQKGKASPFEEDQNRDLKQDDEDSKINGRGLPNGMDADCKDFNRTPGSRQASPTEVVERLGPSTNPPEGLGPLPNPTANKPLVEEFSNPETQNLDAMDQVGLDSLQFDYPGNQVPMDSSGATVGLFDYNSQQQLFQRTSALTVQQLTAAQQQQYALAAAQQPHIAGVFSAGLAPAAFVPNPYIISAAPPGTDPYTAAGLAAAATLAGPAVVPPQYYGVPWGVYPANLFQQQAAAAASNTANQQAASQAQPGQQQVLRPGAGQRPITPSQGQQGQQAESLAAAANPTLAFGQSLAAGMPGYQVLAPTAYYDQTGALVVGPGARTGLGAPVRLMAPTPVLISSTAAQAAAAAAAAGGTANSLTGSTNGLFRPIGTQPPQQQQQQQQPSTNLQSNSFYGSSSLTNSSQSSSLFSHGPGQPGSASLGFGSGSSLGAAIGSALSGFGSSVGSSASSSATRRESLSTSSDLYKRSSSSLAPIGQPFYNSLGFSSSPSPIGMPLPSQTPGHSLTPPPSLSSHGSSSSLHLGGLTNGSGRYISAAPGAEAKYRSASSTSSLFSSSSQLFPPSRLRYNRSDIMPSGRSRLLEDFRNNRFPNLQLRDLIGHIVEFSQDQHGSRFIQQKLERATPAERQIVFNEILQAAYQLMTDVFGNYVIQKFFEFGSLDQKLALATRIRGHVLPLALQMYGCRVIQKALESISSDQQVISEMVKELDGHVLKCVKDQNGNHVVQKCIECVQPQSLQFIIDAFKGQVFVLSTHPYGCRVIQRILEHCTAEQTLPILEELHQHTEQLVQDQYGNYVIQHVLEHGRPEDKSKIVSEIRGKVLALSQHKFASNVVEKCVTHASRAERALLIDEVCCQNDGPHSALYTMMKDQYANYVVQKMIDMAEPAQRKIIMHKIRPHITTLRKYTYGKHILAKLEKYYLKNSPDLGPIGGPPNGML
UniProt Q921F2: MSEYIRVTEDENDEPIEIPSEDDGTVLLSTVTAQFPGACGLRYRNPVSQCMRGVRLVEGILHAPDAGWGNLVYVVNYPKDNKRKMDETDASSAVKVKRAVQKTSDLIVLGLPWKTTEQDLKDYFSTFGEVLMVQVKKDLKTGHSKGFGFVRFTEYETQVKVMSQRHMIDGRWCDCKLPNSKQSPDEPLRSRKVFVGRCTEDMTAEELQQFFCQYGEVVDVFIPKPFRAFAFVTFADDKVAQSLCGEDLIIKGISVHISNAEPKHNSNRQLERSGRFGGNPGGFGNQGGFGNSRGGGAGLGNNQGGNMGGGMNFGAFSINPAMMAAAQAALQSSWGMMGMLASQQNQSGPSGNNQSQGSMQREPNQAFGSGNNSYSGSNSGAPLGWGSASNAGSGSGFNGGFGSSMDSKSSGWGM
UniProt Q5SF07: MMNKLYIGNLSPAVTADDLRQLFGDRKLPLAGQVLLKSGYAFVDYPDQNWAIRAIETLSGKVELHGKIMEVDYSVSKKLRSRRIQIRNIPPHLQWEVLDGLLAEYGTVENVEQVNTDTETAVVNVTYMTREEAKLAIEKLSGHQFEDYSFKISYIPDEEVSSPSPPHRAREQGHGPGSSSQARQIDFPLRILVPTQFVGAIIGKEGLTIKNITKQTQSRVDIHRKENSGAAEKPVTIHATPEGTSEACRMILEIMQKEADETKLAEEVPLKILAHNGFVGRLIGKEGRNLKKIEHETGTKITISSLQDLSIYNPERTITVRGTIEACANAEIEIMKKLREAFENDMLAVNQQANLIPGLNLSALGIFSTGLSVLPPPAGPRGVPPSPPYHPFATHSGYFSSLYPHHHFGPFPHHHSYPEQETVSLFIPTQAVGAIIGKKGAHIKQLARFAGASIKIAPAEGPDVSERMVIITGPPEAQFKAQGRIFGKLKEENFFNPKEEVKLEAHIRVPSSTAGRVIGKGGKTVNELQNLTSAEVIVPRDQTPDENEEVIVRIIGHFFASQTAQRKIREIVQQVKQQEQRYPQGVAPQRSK

T1: HA-tagged OTU domain-containing protein 4 (HA–OTUD4) (human) (UniProt Q01804)
T1 sequence: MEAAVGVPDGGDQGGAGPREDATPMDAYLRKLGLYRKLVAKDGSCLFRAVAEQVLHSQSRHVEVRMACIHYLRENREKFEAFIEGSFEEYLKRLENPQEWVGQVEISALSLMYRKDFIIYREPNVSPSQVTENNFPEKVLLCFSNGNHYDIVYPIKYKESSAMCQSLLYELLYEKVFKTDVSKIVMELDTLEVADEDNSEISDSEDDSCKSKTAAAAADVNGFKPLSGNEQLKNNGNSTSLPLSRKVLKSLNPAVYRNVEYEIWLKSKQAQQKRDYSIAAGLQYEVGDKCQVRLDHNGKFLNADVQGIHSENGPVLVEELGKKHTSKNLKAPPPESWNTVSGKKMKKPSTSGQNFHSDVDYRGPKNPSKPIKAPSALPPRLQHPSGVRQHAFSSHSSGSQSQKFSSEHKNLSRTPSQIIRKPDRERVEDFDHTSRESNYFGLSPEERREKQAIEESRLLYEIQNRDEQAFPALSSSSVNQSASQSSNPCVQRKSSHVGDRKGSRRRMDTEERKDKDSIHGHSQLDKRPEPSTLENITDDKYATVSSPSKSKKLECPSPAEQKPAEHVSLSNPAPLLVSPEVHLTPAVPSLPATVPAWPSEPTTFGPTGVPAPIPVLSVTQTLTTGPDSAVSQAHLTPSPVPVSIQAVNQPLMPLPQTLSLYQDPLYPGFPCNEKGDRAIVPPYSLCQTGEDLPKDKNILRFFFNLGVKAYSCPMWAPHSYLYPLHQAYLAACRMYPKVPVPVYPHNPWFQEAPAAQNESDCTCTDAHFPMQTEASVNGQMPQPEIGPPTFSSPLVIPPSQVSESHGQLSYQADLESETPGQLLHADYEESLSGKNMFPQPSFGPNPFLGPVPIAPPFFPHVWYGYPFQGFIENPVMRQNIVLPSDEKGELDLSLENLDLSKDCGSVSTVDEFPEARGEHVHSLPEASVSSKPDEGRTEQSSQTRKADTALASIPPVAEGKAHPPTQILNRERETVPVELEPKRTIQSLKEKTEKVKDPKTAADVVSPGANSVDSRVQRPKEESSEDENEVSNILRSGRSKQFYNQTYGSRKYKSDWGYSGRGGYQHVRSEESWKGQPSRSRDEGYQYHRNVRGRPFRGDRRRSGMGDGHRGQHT

B1: ataxin-2 of mouse brain (protein, UniProt O70305 1-1285)
chain: MRSSTAAVQRPAAGDPEPRRPAGWAARRSLPRTARRGGRGGAVAYPSAGPPPRGPGAPPRGPRSPPCASDCFGSNGHGASRPGSRRLLGVCGPPRPFVVVLLALAPAATPARACPPGVRASPPRSGVSSSARPAPGCPRPACEPVYGPLTMSLKPQPQPPAPATGRKPGGGLLSSPGAAPASAAVTSASVVPAPAAPVASSSAAAGGGRPGLGRGRNSSKGLPQPTISFDGIYANVRMVHILTSVVGSKCEVQVKNGGIYEGVFKTYSPKCDLVLDAAHEKSTESSSGPKREEIMESVLFKCSDFVVVQFKDTDSSYARRDAFTDSALSAKVNGEHKEKDLEPWDAGELTASEELELENDVSNGWDPNDMFRYNEENYGVVSTYDSSLSSYTVPLERDNSEEFLKREARANQLAEEIESSAQYKARVALENDDRSEEEKYTAVQRNCSDREGHGPNTRDNKYIPPGQRNREVLSWGSGRQSSPRMGQPGPGSMPSRAASHTSDFNPNAGSDQRVVNGGVPWPSPCPSHSSRPPSRYQSGPNSLPPRAATHTRPPSRPPSRPSRPPSHPSAHGSPAPVSTMPKRMSSEGPPRMSPKAQRHPRNHRVSAGRGSMSSGLEFVSHNPPSEAAAPPVARTSPAGGTWSSVVSGVPRLSPKTHRPRSPRQSSIGNSPSGPVLASPQAGIIPAEAVSMPVPAASPTPASPASNRALTPSIEAKDSRLQDQRQNSPAGSKENVKASETSPSFSKADNKGMSPVVSEHRKQIDDLKKFKNDFRLQPSSTSESMDQLLSKNREGEKSRDLIKDKTEASAKDSFIDSSSSSSNCTSGSSKTNSPSISPSMLSNAEHKRGPEVTSQGVQTSSPACKQEKDDREEKKDTTEQVRKSTLNPNAKEFNPRSFSQPKPSTTPTSPRPQAQPSPSMVGHQQPAPVYTQPVCFAPNMMYPVPVSPGVQPLYPIPMTPMPVNQAKTYRAGKVPNMPQQRQDQHHQSTMMHPASAAGPPIVATPPAYSTQYVAYSPQQFPNQPLVQHVPHYQSQHPHVYSPVIQGNARMMAPPAHAQPGLVSSSAAQFGAHEQTHAMYACPKLPYNKETSPSFYFAISTGSLAQQYAHPNAALHPHTPHPQPSATPTGQQQSQHGGSHPAPSPVQHHQHQAAQALHLASPQQQSAIYHAGLAPTPPSMTPASNTQSPQSSFPAAQQTVFTIHPSHVQPAYTTPPHMAHVPQAHVQSGMVPSHPTAHAPMMLMTTQPPGPKAALAQSALQPIPVSTTAHFPYMTHPSVQAHHQQQL
B2: T-cell-restricted intracellular antigen 1 (TIA1) of mouse brain (protein, UniProt P52912 1-386)
chain: MEDEMPKTLYVGNLSRDVTEALILQLFSQIGPCKNCKMIMDTAGNDPYCFVEFHEHRHAAAALAAMNGRKIMGKEVKVNWATTPSSQKKDTSSSTVVSTQRSQDHFHVFVGDLSPEITTEDIKAAFAPFGRISDARVVKDMATGKSKGYGFVSFFNKWDAENAIQQMGGQWLGGRQIRTNWATRKPPAPKSTYESNTKQLSYDEVVSQSSPNNCTVYCGGVTSGLTEQLMRQTFSPFGQIMEIRVFPDKGYSFVRFSSHESAAHAIVSVNGTTIEGHVVKCYWGKETLDMINPVQQQNQIGYPPTYGQWGQWYGNAQQIGQYVPNGWQVPAYGVYGQPWSQQGFNQTQSSAPWMGPNYSVPPPQGQNGSMLPSQPAGYRVAGYETQ
B3: Purβ of mouse brain (protein, UniProt O35295 1-324)
chain: MADGDSGSERGGGGGGGGGPGGFQPAPRGGGGGGGGPGGEQETQELASKRLDIQNKRFYLDVKQNAKGRFLKIAEVGAGGSKSRLTLSMAVAAEFRDSLGDFIEHYAQLGPSSPEQLAAGAEEGGGPRRALKSEFLVRENRKYYLDLKENQRGRFLRIRQTVNRGGGGFGGGPGPGGLQSGQTIALPAQGLIEFRDALAKLIDDYGGDEDELAGGPGGGAGGPGGGLYGELPEGTSITVDSKRFFFDVGCNKYGVFLRVSEVKPSYRNAITVPFKAWGKFGGAFCRYADEMKEIQERQRDKLYERRGGGSGGGDESEGEEVDED
B4: TIA1-related protein (TIAR) of mouse brain (protein, UniProt P70318 1-392)
chain: MMEDDGQPRTLYVGNLSRDVTEVLILQLFSQIGPCKSCKMITEQPDSRRVNSSVGFSVLQHTSNDPYCFVEFYEHRDAAAALAAMNGRKILGKEVKVNWATTPSSQKKDTSNHFHVFVGDLSPEITTEDIKSAFAPFGKISDARVVKDMATGKSKGYGFVSFYNKLDAENAIVHMGGQWLGGRQIRTNWATRKPPAPKSTQETNTKQLRFEDVVNQSSPKNCTVYCGGIASGLTDQLMRQTFSPFGQIMEIRVFPEKGYSFVRFSTHESAAHAIVSVNGTTIEGHVVKCYWGKESPDMTKNFQQVDYSQWGQWSQVYGNPQQYGQYMANGWQVPPYGVYGQPWNQQGFGVDQSPSAAWMGGFGAQPPQGQAPPPVIPPPNQAGYGMASFPTQ
B5: helicase MOV10 of mouse brain (protein, UniProt P23249 1-1004)
chain: MPSKFSCRKLRETGQRFESFLAERGLDLETDRERLRTIYNHDFKPSYGTPAPGFSSMLYGMKIANLAFVTKTRVRFFKLDRWADVQLPEKRRIKPGSNISKQHRSLLARIFHDRAEYLHGKHGVDVEVQGPHEARDGQLLIHLDLNRKEVLTLRLRNGGSKPVTLTHLFPLCWTPQFVFYHGEQDLPCPLGPGESYELHIYCKTSIVGYFPATVLWELLGPGESGAEGAETFYIARFLAAVAHSPLAAQLKPTTPFKRPPRLTRNSVLTNRIEEGERPDRAKGYELELSLALGTYYPPILLRQLLPTLLQGPSIFTAPKEVAEIKAQLETTLKSRNYEVKLRLLLHLEELQMEHDIRHYDLDSVPMTWDPVDQNPRLLTLEVPGVAESRPSVLRGDHLFALLSSETQQDDPVTYKGFVHKVELDRVKLSFSTSLLSRFVDGLTFKVNFTFNRQPLRVQHRALELTGRWVLWPMLFPVASRGVSLLPSDVKFKLYDRSLESNPEQLQAMKHIVRGTTRPAPYIIFGPPGTGKTVTLVEAIKQVVKHLPKAHILACAPSNSGADLLCQRLRVHLPSSIYRLLAPSRDIRMVPEDIKTCCNWDAKKGEYVYPAKKHLQQYRVLITTLITASRLVSAQFPIDHFTHIFIDEAGHCMEPESLVAIAGLMDVKETGNPGGQLVLAGDPRQLGPVLRSPLALKHGLGYSLLERLLAYNSLYKKGPNGYDPQFITKLLRNYRSHPTILDIPNQLYYDGELQACADVVDRERFCRWEGLPQQGFPIIFHGVMGKDEREGNSPSFFNPEEAATVTSYLKQLLAPSSKKGKARLSPRNVGVISPYRKQVEKIRYCITKLDRELRGLDDIKDLKVGSVEEFQGQERSVILISTVRSSQSFVQLDLDFNLGFLKNPKRFNVAVTRAKALLIVVGNPLLLGHDPDWKTFLEFCKENGGYTGCPFPAKLDLQQGQDLLQGLSKLSPSTSGPRRHQNLPQEREGEGGLPLQVEPEWRNEL

molecular target: T1, HA-tagged OTU domain-containing protein 4 (HA–OTUD4) (human); experiment: affinity purification with mass spectrometry; HA–OTUD4 purified from HEK293T lysate and held on HA-magnetic beads, incubated with ~5 mg protein of mouse cortex or cerebellum lysate at 4°C for 5 h; washed four times in PBS with 0.5% Triton X-100; hits found in at least two of three experiments per tissue and enriched ≥30 fold over control; only the target purified

binding, binds:
B1, B2, B3, B4, B5

molecular target: T1, HA-tagged OTU domain-containing protein 4 (HA–OTUD4) (human); experiment: as above; remark: another data set of the same source

binding, binds:
eIF4E of mouse brain (from UniProt P63073 1-217), eIF4A of mouse brain, eIF4G of mouse brain, insulin-like growth factor 2 mRNA-binding protein 3 (IGF2BP3) of mouse brain (from UniProt Q9CPN8 1-579), Staufen of mouse brain, Pumilio 2 of mouse brain (from UniProt Q80U58 1-1066), TDP-43 of mouse brain (from UniProt Q921F2 1-414), insulin-like growth factor 2 mRNA-binding protein 2 (IGF2BP2) of mouse brain (from UniProt Q5SF07 1-592)
